Experimental data taken from PubChem BioAssay AID504444 (National Center for Advancing Translational Sciences (NCATS), 2011).
The campaign covered roughly 360,000 compounds. About 7,500 (2.1%) were called active. This list was built around the results that the source calls inconclusive (neither active nor inactive); the mix of calls is not that of the screen. Calls come from the whole dose curve; as a rule, active = well fitted inhibition curve with a large enough effect; inconclusive = small, poorly fitted or top-dose-only effect, or effect the other way; inactive = flat fitted curve, though single readings scatter. A potency beside an inconclusive call is a rough fit, not a confirmed value.
Potency is the fitted concentration of half-maximal effect.

Test: Nrf2 qHTS screen for inhibitors; note: nearly all actives have a fitted effect of over 60% in size
Settings: A549 ARE-Fluc reporter, luciferase luminescence, 18-24 h; series mostly up to 46 µM
Summary of the method: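 Cells were seeded and rested 2 h, then exposed to compounds for 18-24 h. CellTiter-Fluor was read first as a viability measure. BugLite was added 15 min before the final luminescent read of ARE-luciferase activity in A549 cells.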
With `Cc1cccc(NC(=O)CSc2nnc(CCCCCNC(=O)OC(C)(C)C)o2)c1C` the Potency was inconclusive: 25.9 µM [falling, partial curve, poor fit].
In the case of `CC1(C)C2CCC1(CS(=O)(=O)NCc1ccc(C(F)(F)F)cc1)C(=O)C2` (stereo not drawn), the Potency is reported as inconclusive: 5.8 µM [activator, full curve, poor fit].
With `CCCCCN1C(C(=O)c2ccccc2)=C(NC(C)=O)c2ccccc2S1(=O)=O` the Potency was inconclusive: 25.9 µM [falling, single point].
With `CC(=O)c1cccc(NC(=O)c2c(C)nn(-c3ccc(F)cc3)c2-n2cccc2)c1` the Potency was inconclusive: 23.1 µM [activator, single point].
With `CC(C)(CNC(=O)c1cccc(S(=O)(=O)Nc2ccc(SC(F)F)cc2)c1)N1CCOCC1` the Potency was inconclusive: 25.9 µM [falling, single point].
In the case of `CC(=NNC(=O)c1ccncc1)c1ccc(O)cc1O`, the Potency is reported as inconclusive: 29.1 µM [falling, single point].
With `COc1ccc(S(=O)(=O)N2CCC(C(=O)NCCC(=O)Nc3ccc(Cl)cc3)CC2)cc1` the Potency was “inactive”.
With `CCCn1c2ccccc2c2cnn(CC(=O)Nc3ccc(C)cc3Br)c(=O)c21` the Potency was “inactive”.
In the case of `CC(C)C(=O)N1CCN(c2ccc(NC(=O)COc3ccccc3[N+](=O)[O-])cc2)CC1`, the Potency is reported as inconclusive: 23.1 µM [falling, single point].
With `Cc1ccc(NS(=O)(=O)c2ccc(C(=O)Nc3nncs3)cc2)cc1` the Potency was inconclusive: 29.1 µM [falling, single point].
In the case of `CCc1ccc(NC(=O)c2sc3nc(C)c(Cl)c(C)c3c2NC(=O)c2ccccc2)cc1`, the Potency is reported as “inactive”.
For `CCOc1cc(C(=O)NN=C2CCCC2)cc(OCC)c1OCC`, the Potency was “inactive”.
For `CN(Cc1c(C(=O)N/N=C/c2ccc(O)cc2)nnn1-c1nonc1N)C1CCCCC1`, the Potency was inconclusive: 29.1 µM [falling, single point].
With `COc1ccc2c(c1OC)C(=O)N(c1cccc(NC(C)=O)c1)C2` the Potency was inconclusive: 7.31 µM [activator, partial curve, poor fit].
In the case of `COc1cccc(CN(C)C(=O)CN2C(=O)NC3(CCCc4ccccc43)C2=O)c1` (stereo not drawn), the Potency is reported as “inactive”.
In the case of `Cc1cc(Cl)ccc1OCC(=O)N(Cc1ccc(N(C)C)cc1)CC1CCCO1` (stereo not drawn), the Potency is reported as inconclusive: 29.1 µM [falling, single point].
In the case of `Cc1c(O)nc2ccccn2c1=O`, the Potency is reported as inconclusive: 5.17 µM [falling, single point].
For `CC(C)c1ccccc1NC(=O)c1ccc2ncsc2c1`, the Potency was inconclusive: 4.61 µM [activator, partial curve].
With `Nc1ccc2cc3[nH]c4cc(N)ccc4c3nc2c1` the Potency was inconclusive: 13 µM [activator, partial curve, poor fit].
With `CC1CCN(c2ccccc2NC(=O)c2cc([N+](=O)[O-])ccc2N2CCOCC2)CC1` the Potency was inconclusive: 29.1 µM [falling, single point].
For `CCOc1ccc(/C=C/C(=O)C(C(N)=O)=C2SCCS2)cc1`, the Potency was “inactive”.
With `O=C(c1cnn2c(C(F)(F)F)cc(-c3cccs3)nc12)N1CCOCC1` the Potency was “inactive”.
For `CCOC(=O)N=Nc1c2ccccc2c2nc3no[nH]c3nc12`, the Potency was active: 0.651 µM.
In the case of `CC(=O)c1ccc(NC(=S)NN2C(C)CCCC2C)cc1` (stereo not drawn), the Potency is reported as inconclusive: 3.66 µM [falling, partial curve, poor fit].
In the case of `COC(=O)C1=C(C)N=C2SC(C#N)=C(N)N2C1c1ccc(OCc2ccccc2)cc1` (stereo not drawn), the Potency is reported as inconclusive: 25.9 µM [falling, partial curve, poor fit].
For `O=C(OCc1cc(=O)n2nc(-c3cccs3)sc2n1)c1ccccc1Br`, the Potency was inconclusive: 4.61 µM [activator, full curve, poor fit].
For `COc1cccc(OCC(=O)NN=C2c3ccccc3-c3ccccc32)c1`, the Potency was active: 18.4 µM.
With `O=C(Nc1ccc2ccccc2c1)c1ccccc1O` the Potency was inconclusive: 20.6 µM [activator, partial curve].
With `CC(=O)c1ccc(NC(=O)Nc2ccc3c(c2)N(C)C(=O)CS3)cc1` the Potency was inconclusive: 25.9 µM [falling, single point].
For `Cc1cc(C)c(Cn2c3ccccc3c3cnn(CC(=O)NCCN4CCOCC4)c(=O)c32)c(C)c1`, the Potency was inconclusive: 29.1 µM [falling, single point].
With `CC[n+]1c(/C=C/c2c[nH]c3ccccc23)ccc2cc(C)ccc21` the Potency was inconclusive: 29.1 µM [falling, single point].
With `Cc1cc(NC(=O)C(C)(C)Oc2ccc(Cl)cc2)cc(-c2nc3ncccc3o2)c1O` the Potency was inconclusive: 7.31 µM [activator, partial curve, poor fit].
With `CCS(=O)(=O)N1CCCC(C(=O)NCc2ccc(C)cc2)C1` (stereo not drawn) the Potency was “inactive”.
With `COc1ccc(-c2noc(CCC(=O)NC3CCCC3)n2)cc1` the Potency was inconclusive: 6.51 µM [falling, partial curve].
With `CN(Cc1ccccc1)C(=O)c1cccc(N2C(=O)C3CC=CCC3C2=O)c1` (stereo not drawn) the Potency was “inactive”.
With `O=C(NCCNc1ccc([N+](=O)[O-])cc1C(F)(F)F)c1ccccc1F` the Potency was inconclusive: 29.1 µM [falling, single point].
In the case of `COc1ccc(-c2c[n+]3c(n2-c2c(C)n(C)n(-c4ccccc4)c2=O)CCCCC3)cc1`, the Potency is reported as inconclusive: 11.6 µM [activator, partial curve].
In the case of `CC1(C)CC(=O)C([N+](=O)[O-])=C(NCCCC(=O)O)C1`, the Potency is reported as “inactive”.
For `CCn1c(C(=O)N2CCCC(C(=O)NCCCc3ccccc3)C2)cc2sccc21` (stereo not drawn), the Potency was active: 16.4 µM.
With `O=C(N/N=C/c1ccc(O)cc1)c1[nH]c2ccc(Br)cc2c1-c1ccccc1` the Potency was inconclusive: 32.6 µM [falling, single point].
In the case of `CC(=O)c1cccc(NC(=S)NC(=O)c2ccc(C)cc2)c1`, the Potency is reported as inconclusive: 2.31 µM [activator, partial curve, poor fit].
In the case of `COc1ccc(CNC(=O)CSc2ccsc2[N+](=O)[O-])cc1`, the Potency is reported as inconclusive: 20.6 µM [activator, partial curve, poor fit].
With `N=c1ccn2c(n1)OC1C(O)C(CO)OC12` (stereo not drawn) the Potency was active: 0.184 µM.
